These are yes or no findings as the source states them, for the method shown. In cells and extracts the contact can be indirect. Here binding means that the protein was enriched with, or labelled near, the bait; the list need not be complete. Where a sequence is shown, tags or fusion partners need not be part of it.
T1: Venus-GABAA receptor α1 subunit fusion (inhibitory synapse affinity tag), P62812
T1 chain: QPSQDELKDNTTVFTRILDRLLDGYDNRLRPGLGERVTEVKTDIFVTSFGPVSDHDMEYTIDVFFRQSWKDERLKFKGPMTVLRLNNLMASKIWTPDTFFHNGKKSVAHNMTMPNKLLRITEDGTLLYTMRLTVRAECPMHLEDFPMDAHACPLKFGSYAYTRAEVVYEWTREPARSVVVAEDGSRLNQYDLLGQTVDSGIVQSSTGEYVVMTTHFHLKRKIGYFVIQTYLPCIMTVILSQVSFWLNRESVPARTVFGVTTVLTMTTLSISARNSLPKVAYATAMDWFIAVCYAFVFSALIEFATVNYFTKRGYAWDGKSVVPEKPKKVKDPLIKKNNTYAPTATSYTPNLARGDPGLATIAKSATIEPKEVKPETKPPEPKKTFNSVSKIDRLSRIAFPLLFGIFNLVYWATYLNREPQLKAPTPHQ


Columns and labels:
[1] = molecular target: Venus-GABAA receptor α1 subunit fusion (inhibitory synapse affinity tag) (UniProt P62812); experiment: affinity purification with mass spectrometry; same immunopurification via VGABAARα1 (tagged sample) or eGFP (control sample); FASP II on-membrane digestion, LC-MS/MS on LTQ-Orbitrap XL, X!Tandem search, cutoff E = 10^-4; two replicates; proteins found with eGFP subtracted
[2] = molecular target: T1, Venus-GABAA receptor α1 subunit fusion …; experiment: as above; conditions: remark: other sources report otherwise

binding [1]	binding [2]	Binder
binds		lipoma HMGIC fusion partner-like 4 (protein, UniProt Q5U4E0 1-247) MLPSQEASKLYHEHYMRNSRAIGVLWAIFTICFAIINVVVFIQPYWVGDSVSTPKPGYFGLFHYCVGSGLAGRELTCRGSFTDFSTIPSSAFKAAAFFVLLSMVLILGCITCFALFFFCNTATVYKICAWMQLLAALCLVLGCMIFPDGWDAETIRDMCGAKTGKYSLGDCSVRWAYILAIIGILNALILSFLAFVLGNRQTDLLQEELKQENKDFVGTTVSSVLRPGGDVSGWGVLPCPVAHTQGP
	binds	Gephyrin, Q8BUV3 1-769 (protein) MATEGMILTNHDHQIRVGVLTVSDSCFRNLAEDRSGINLKDLVQDPSLLGGTISAYKIVPDEIEEIKETLIDWCDEKELNLILTTGGTGFAPRDVTPEATKEVIEREAPGMALAMLMGSLNVTPLGMLSRPVCGIRGKTLIINLPGSKKGSQECFQFILPALPHAIDLLRDAIVKVKEVHDELEDLPSPPPPLSPPPTTSPHKQTEDKGVQCEEEEEEKKDSGVASTEDSSSSHITAAALAAKIPDSIISRGVQVLPRDTASLSTTPSESPRAQATSRLSTASCPTPKQIRRPDESKGVASRVGSLKARLPSCSSTYSVSEVQSRCSSKENILRASHSAVDITKVARRHRMSPFPLTSMDKAFITVLEMTPVLGTEIINYRDGMGRVLAQDVYAKDNLPPFPASVKDGYAVRAADGPGDRFIIGESQAGEQPTQTVMPGQVMRVTTGAPIPCGADAVVQVEDTELIRESDDGTEELEVRILVQARPGQDIRPIGHDIKRGECVLAKGTHMGPSEIGLLATVGVTEVEVNKFPVVAVMSTGNELLNPEDDLLPGKIRDSNRSTLLATIQEHGYPTINLGIVGDNPDDLLNALNEGISRADVIITSGGVSMGEKDYLKQVLDIDLHAQIHFGRVFMKPGLPTTFATLDIDGVRKIIFALPGNPVSAVVTCNLFVVPALRKMQGILDPRPTIIKARLSCDVKLDPRPEYHRCILTWHHQEPLPWAQSTGNQMSSRLMSMRSANGLLMLPPKTEQYVELHKGEVVDVMVIGRL
	binds	GABAA receptor α4 subunit, Q9D6F4 36-552 (receptor) QNSKDEKLCPENFTRILDSLLDGYDNRLRPGFGGPVTEVKTDIYVTSFGPVSDVEMEYTMDVFFRQTWIDKRLKYDGPIEILRLNNMMVTKVWTPDTFFRNGKKSVSHNMTAPNKLFRIMRNGTILYTMRLTISAECPMRLVDFPMDGHACPLKFGSYAYPKSEMIYTWTKGPEKSVEVPKESSSLVQYDLIGQTVSSETIKSITGEYIVMTVYFHLRRKMGYFMIQTYIPCIMTVILSQVSFWINKESVPARTVFGITTVLTMTTLSISARHSLPKVSYATAMDWFIAVCFAFVFSALIEFAAVNYFTNIQMQKAKKKISKPPPEVPAAPVLKEKHTETSLQNTHANLNMRKRTNALVHSESDVKSRTEVGNHSSKTSAVQESSEATPKAHLASSPNPFSRANAAETMSAAARGLSSAASPSPHGTLRPASLGSASTRPAFGSRLGRIKTTVNTTGAAGNVSATPPPPAPPPSGSGTSKIDKYARILFPVTFGAFNMVYWVVYLSKDTMEKSESLM
